This is one part of the list.
How the values were obtained:
Assay in all cases: log2 fold change, soluble protein after heating vs DMSO (PISA); higher = thermal stabilisation; K562 lysate, 10 uM; active = over 0.2 and 3.5 SD of the protein, either way, in both replicates (recomputed)
ibrutinib = compound: C=CC(=O)N1CCC[C@@H](n2nc(-c3ccc(Oc4ccccc4)cc3)c3c(N)ncnc32)C1 [ibrutinib]
In short: (§1)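 K562 pellets were dounce-homogenised in PBS pH 7.4 containing 1 mM MgCl2, and the crude extract, at 1 mg/mL protein, was exposed to 10 μM compound for 30 min. Aliquots were heated for 3 min across 48°C-58°C, pooled, brought to 0.5% NP-40 at 4°C and spun at 21,000xg for 90 min, with the supernatant taken as soluble protein. TMTpro 16plex LC-MS/MS with equalised channel sums quantified that protein. Values are log-two fold changes in thermal stability relative to solvent controls, taken from duplicates.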

The chains behind the UniProt entries cited, without tags or fusion partners. Where a name states a change or a piece, a line headed by the entry shows the natural chain unless it says otherwise.
UniProt P57081: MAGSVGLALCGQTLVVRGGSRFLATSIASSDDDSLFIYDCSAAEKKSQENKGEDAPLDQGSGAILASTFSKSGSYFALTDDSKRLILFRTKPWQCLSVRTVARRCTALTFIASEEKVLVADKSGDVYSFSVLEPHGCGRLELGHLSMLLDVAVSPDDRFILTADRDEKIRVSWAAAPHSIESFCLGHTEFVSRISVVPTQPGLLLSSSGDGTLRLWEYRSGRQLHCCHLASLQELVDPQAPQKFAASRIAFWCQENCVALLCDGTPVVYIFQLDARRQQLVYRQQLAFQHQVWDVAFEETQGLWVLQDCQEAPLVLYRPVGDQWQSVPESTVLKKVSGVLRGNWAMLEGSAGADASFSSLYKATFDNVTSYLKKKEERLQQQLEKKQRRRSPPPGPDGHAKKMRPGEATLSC
UniProt Q8N3P4: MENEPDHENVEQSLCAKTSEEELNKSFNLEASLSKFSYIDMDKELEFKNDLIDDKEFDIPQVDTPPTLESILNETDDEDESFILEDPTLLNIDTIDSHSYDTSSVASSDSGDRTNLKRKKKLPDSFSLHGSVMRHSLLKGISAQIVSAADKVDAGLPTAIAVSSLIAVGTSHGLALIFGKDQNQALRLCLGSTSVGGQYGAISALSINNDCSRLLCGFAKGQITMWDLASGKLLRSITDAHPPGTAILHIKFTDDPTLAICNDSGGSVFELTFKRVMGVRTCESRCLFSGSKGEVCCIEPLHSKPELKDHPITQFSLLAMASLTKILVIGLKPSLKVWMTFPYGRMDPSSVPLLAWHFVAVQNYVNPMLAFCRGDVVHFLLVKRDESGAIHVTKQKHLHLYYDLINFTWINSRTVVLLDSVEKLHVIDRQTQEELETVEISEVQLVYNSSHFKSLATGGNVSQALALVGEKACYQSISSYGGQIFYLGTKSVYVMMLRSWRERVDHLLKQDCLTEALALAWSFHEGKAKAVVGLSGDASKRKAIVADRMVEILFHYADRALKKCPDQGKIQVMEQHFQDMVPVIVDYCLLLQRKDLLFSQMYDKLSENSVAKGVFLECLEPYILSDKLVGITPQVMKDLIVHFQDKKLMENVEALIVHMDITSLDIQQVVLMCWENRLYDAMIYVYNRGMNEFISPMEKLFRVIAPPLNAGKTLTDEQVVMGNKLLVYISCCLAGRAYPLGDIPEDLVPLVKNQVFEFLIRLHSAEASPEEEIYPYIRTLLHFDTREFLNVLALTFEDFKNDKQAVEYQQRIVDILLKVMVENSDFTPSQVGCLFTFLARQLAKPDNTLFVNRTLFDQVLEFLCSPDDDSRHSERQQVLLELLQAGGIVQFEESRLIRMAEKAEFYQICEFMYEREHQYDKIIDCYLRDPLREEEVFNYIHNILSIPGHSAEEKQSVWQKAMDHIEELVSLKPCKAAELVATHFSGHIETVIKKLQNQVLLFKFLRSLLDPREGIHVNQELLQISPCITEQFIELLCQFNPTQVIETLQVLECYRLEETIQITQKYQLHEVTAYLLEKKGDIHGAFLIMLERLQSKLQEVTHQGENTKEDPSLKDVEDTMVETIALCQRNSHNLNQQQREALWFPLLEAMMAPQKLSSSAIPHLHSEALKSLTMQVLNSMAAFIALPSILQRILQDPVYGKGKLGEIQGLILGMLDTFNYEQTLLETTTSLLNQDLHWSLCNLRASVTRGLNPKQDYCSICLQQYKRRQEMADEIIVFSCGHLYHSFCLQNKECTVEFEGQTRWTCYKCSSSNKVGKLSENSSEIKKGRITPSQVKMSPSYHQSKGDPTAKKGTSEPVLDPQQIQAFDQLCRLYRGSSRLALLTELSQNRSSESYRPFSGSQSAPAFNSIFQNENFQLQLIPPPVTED
UniProt Q3ZAQ7: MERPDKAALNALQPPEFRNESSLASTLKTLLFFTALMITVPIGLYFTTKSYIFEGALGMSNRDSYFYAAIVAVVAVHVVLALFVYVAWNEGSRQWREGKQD
UniProt Q9UNX4: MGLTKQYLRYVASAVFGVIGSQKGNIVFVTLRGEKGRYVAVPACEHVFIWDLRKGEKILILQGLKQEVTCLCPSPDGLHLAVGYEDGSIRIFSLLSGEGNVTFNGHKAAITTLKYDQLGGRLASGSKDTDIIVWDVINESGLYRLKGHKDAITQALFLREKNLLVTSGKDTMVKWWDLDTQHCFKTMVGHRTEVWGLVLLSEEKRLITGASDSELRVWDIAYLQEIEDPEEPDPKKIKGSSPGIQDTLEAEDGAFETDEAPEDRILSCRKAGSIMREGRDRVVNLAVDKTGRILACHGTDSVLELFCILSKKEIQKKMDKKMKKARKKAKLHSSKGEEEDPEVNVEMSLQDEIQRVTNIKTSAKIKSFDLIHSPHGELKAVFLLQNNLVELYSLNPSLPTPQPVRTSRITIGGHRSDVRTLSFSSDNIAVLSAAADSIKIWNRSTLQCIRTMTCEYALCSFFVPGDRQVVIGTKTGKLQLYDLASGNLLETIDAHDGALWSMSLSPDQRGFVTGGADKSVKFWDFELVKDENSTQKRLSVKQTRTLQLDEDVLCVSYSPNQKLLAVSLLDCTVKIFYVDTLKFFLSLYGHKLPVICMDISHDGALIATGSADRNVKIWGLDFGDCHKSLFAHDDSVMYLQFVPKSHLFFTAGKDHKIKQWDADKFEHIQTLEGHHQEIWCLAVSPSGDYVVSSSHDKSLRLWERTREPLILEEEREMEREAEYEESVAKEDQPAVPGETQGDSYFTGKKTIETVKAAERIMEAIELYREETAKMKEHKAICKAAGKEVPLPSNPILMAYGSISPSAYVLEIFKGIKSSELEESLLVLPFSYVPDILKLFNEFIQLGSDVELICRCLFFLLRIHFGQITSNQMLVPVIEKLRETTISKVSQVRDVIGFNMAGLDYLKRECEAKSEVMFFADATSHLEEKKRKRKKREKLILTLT
UniProt Q12768: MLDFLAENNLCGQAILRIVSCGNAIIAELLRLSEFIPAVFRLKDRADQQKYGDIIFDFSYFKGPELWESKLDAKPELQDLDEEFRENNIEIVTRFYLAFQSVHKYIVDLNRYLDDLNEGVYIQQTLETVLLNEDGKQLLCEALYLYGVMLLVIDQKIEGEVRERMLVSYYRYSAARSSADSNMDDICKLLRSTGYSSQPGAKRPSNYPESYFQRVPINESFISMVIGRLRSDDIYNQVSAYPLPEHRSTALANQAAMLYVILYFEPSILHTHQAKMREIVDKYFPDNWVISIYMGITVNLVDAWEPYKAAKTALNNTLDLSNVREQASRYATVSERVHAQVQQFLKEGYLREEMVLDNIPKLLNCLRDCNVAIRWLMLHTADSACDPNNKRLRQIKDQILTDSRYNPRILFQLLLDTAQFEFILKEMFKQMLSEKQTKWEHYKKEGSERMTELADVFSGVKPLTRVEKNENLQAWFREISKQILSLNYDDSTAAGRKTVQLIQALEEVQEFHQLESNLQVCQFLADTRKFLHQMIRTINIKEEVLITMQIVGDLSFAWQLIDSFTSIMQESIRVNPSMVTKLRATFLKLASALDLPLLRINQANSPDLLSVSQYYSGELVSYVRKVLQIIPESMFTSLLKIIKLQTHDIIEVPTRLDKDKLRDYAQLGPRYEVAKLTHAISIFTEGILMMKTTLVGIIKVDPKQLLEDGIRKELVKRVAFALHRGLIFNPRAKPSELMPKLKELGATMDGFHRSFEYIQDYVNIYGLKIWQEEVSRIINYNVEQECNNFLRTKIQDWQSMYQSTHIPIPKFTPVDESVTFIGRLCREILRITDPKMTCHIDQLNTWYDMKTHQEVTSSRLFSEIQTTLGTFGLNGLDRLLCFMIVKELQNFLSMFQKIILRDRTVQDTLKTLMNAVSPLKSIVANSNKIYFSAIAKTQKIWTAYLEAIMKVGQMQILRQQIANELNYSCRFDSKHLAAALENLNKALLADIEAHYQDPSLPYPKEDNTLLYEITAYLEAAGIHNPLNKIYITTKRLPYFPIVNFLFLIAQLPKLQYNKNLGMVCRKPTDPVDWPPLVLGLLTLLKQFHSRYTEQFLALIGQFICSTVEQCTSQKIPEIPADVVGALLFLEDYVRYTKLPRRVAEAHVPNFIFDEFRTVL
UniProt Q7Z5K2: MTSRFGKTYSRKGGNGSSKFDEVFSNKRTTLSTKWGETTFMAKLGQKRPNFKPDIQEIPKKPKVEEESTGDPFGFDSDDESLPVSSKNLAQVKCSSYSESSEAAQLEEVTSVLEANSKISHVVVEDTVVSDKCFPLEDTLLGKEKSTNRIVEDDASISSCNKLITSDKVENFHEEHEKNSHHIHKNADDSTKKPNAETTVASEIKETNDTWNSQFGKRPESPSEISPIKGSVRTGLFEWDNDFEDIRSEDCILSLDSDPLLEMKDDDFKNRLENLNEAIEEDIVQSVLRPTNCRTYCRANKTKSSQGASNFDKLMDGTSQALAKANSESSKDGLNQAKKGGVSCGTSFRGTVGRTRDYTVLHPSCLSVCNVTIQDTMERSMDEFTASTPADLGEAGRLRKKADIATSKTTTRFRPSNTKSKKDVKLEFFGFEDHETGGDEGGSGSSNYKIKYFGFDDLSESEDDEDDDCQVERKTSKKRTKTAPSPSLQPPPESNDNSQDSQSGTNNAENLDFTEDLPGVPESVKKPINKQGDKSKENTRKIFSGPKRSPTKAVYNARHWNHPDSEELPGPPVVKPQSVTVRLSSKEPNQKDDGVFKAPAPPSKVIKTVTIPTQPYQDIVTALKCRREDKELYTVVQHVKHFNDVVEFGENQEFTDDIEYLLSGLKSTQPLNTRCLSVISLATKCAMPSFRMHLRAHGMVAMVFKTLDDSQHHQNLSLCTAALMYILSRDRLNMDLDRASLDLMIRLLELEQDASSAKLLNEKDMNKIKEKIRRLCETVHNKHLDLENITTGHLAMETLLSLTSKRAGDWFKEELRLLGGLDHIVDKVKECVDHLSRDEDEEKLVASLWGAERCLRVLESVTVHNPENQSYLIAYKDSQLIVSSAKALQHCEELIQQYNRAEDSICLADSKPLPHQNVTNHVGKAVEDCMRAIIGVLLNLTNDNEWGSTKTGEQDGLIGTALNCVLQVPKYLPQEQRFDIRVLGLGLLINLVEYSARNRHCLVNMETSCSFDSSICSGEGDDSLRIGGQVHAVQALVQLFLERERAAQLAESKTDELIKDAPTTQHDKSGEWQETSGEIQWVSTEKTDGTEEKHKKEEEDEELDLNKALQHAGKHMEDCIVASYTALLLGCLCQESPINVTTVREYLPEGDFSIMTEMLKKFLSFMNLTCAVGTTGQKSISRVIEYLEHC
UniProt Q9UK41: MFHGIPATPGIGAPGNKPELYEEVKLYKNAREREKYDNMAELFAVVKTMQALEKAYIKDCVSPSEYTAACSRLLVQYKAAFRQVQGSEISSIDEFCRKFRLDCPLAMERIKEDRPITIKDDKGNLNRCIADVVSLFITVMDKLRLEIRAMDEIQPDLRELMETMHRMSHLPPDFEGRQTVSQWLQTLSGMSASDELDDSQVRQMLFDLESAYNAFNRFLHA
UniProt Q96GC9: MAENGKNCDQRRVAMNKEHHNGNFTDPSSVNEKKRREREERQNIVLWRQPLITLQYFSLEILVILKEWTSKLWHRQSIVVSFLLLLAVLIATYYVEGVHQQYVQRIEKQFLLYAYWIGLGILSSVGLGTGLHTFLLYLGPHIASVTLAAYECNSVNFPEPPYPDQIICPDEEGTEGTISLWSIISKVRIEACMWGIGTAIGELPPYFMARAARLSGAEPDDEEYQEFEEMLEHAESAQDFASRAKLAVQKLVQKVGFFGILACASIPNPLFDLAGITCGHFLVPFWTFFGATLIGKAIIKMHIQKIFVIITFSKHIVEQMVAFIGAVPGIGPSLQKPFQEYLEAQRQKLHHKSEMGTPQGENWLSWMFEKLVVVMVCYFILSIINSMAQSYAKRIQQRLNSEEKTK
UniProt Q9UN37: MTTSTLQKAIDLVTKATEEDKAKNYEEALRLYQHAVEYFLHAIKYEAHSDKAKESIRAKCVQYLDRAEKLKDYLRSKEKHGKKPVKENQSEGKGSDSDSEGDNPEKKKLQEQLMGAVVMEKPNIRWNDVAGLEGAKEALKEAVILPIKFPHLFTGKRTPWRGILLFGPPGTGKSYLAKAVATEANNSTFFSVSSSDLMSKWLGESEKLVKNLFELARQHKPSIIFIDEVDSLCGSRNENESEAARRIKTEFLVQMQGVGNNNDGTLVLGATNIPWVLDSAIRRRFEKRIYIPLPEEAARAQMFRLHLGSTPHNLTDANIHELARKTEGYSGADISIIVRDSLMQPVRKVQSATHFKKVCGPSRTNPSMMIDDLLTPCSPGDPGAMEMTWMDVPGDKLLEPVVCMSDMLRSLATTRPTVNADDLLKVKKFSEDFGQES

[1] = compound: CC(=O)c1cnc2ccc(-c3cc(Cl)c(O)c(Cl)c3)nc2c1N[C@H]1CC[C@H](CN(C)C)CC1
In short: as §1

ralimetinib = compound: CC(C)(C)Cn1c(N)nc2ccc(-c3[nH]c(C(C)(C)C)nc3-c3ccc(F)cc3)nc21 [ralimetinib]
In short: as §1

[2] = compound: CC(C)(O)CC(=O)NCCn1ccc2ncnc(Nc3ccc(Oc4cccc(C(F)(F)F)c4)c(Cl)c3)c21
In short: as §1

[3] = compound: CC(C)C1=C2N=C(C=C(N2N=C1)NCC3=CC=CC=C3)NCCCCCCN
In short: as §1

[4] = compound: CC1=C(C(CC(=O)N1)C2=CC=C(C=C2)C(F)(F)F)C(=O)NC3=C(C=C4C(=C3)C=NN4)F
In short: as §1

[5] = compound: CC1=C(C2=C(C=C1)C(=O)C3=CC=CC=C3N2CCCN)C
In short: as §1

[6] = compound: CC1=C(C=C(C=C1)NC(=O)C2=CC(=CC=C2)C(C)(C)C#N)NC3=CC4=C(C=C3)N=CN(C4=O)C
In short: as §1

[7] = compound: CC1=C(C=C(C=C1)NC(=O)C2=CC(=CC=C2)N(C)C)NC(=O)C3=CC=C(C=C3)O
In short: as §1

[8] = compound: CC1=CC=C(C=C1)SC2=C3C=C(SC3=CN=C2)C(=O)N
In short: as §1

vemurafenib = compound: CCCS(=O)(=O)Nc1ccc(F)c(C(=O)c2c[nH]c3ncc(-c4ccc(Cl)cc4)cc23)c1F [vemurafenib]
In short: as §1

[9] = compound: CCCS(=O)(=O)Nc1ccc(F)c(C(=O)c2c[nH]c3ncc(Cl)cc23)c1F
In short: as §1

barasertib = compound: CCN(CCCOc1ccc2c(Nc3cc(CC(=O)Nc4cccc(F)c4)[nH]n3)ncnc2c1)CCOP(=O)(O)O [barasertib]
In short: as §1

[10] = compound: CC[C@@H]1C(=O)N(C)c2cnc(Nc3ccc(C(=O)NC4CCN(C)CC4)cc3OC)nc2N1C1CCCC1
In short: as §1

volasertib = compound: CC[C@@H]1C(=O)N(C)c2cnc(Nc3ccc(C(=O)N[C@H]4CC[C@H](N5CCN(CC6CC6)CC5)CC4)cc3OC)nc2N1C(C)C [volasertib]
In short: as §1

[11] = compound: CCn1c(C(=O)N(C2CC2)C2CC2)cc2c3c(ncn3C)c(Nc3cc(C)n(C)n3)nc21
In short: as §1

[12] = compound: CCn1cc(-c2ccnc3[nH]c(-c4cccc(CN(C)C)c4)cc23)c(-c2ccc(NC(=O)N(C)C)cc2)n1
In short: as §1

[13] = compound: CN1CCC(CNc2ccc3ncc(-c4cccc(OC(F)(F)F)c4)n3n2)CC1
In short: as §1

saracatinib = compound: CN1CCN(CCOc2cc(OC3CCOCC3)c3c(Nc4c(Cl)ccc5c4OCO5)ncnc3c2)CC1 [saracatinib]
In short: as §1

sotrastaurin = compound: CN1CCN(c2nc(C3=C(c4c[nH]c5ccccc45)C(=O)NC3=O)c3ccccc3n2)CC1 [sotrastaurin]
In short: as §1

Target	log2 fold change (ibrutinib)	log2 fold change [1]	log2 fold change (ralimetinib)	log2 fold change [2]	log2 fold change [3]	log2 fold change [4]	log2 fold change [5]	log2 fold change [6]	log2 fold change [7]	log2 fold change [8]	log2 fold change (vemurafenib)	log2 fold change [9]	log2 fold change (barasertib)	log2 fold change [10]	log2 fold change (volasertib)	log2 fold change [11]	log2 fold change [12]	log2 fold change [13]	log2 fold change (saracatinib)	log2 fold change (sotrastaurin)
WDR4 (UniProt P57081)	inactive: 0.022	inactive: -0.031	inactive: 0	inactive: 0	inactive: -0.01	inactive: -0.032	inactive: -0.037	inactive: 0.036	inactive: -0.015	inactive: 0.003	inactive: -0.044	inactive: 0.001	inactive: -0.015	inactive: 0.042	inactive: -0.011	inactive: -0.014	inactive: 0.083	inactive: -0.001	inactive: 0.004	inactive: 0.032
VPS8 (UniProt Q8N3P4)	inactive: -0.012	inactive: -0.003	inactive: 0.035	inactive: -0.05	inactive: -0.02	inactive: -0.022	inactive: -0.043	inactive: 0.024	inactive: -0.042	inactive: -0.006	inactive: 0.048	inactive: 0.031	inactive: 0.045	inactive: -0.033	inactive: -0.057	inactive: 0.093	inactive: -0.053	inactive: -0.007	inactive: -0.005	inactive: 0.021
VMA21 (UniProt Q3ZAQ7)	inactive: -0.065	inactive: -0.029	inactive: 0.086	inactive: -0.071	inactive: 0.063	inactive: -0.141	inactive: -0.038	inactive: 0.085	inactive: 0.042	inactive: -0.002	inactive: 0.026	inactive: -0.01	inactive: -0.011	inactive: -0.108	inactive: -0.021	inactive: 0.051	inactive: -0.209	inactive: -0.02	inactive: 0.056	inactive: -0.018
WDR5 (UniProt P61964)	inactive: 0.11	inactive: -0.04	inactive: 0.096	inactive: -0.016	inactive: 0.021	inactive: -0.011	inactive: 0.025	inactive: 0.028	inactive: -0.025	inactive: 0.028	inactive: 0.008	inactive: -0.003	inactive: 0.046	inactive: 0.012	inactive: 0.037	inactive: 0.005	inactive: -0.092	inactive: 0.093	inactive: 0.037	inactive: -0.089
WDR3 (UniProt Q9UNX4)	inactive: 0	inactive: 0.014	inactive: 0.021	inactive: 0.025	inactive: -0.033	inactive: 0.015	inactive: -0.032	inactive: -0.021	inactive: -0.001	inactive: 0.03	inactive: -0.01	inactive: 0.011	inactive: 0.042	inactive: -0.063	inactive: -0.043	inactive: 0.01	inactive: -0.024	inactive: 0.019	inactive: 0.002	inactive: 0.062
WDR73 (UniProt Q6P4I2)	inactive: 0.008	inactive: 0.03	inactive: -0.009	inactive: -0.001	inactive: -0.003	inactive: -0.016	inactive: -0.013	inactive: 0.007	inactive: 0.001	inactive: 0.032	inactive: -0.011	inactive: -0.021	inactive: -0.024	inactive: 0.033	inactive: -0.017	inactive: -0.001	inactive: -0.036	inactive: 0.086	inactive: 0.013	inactive: -0.001
WASHC5 (UniProt Q12768)	inactive: 0.016	inactive: -0.008	inactive: 0.017	inactive: -0.026	inactive: -0.014	inactive: 0	inactive: -0.013	inactive: 0.004	inactive: -0.022	inactive: 0.005	inactive: 0.031	inactive: 0.036	inactive: 0.007	inactive: 0.006	inactive: -0.035	inactive: -0.01	inactive: -0.057	inactive: 0.003	inactive: -0.007	inactive: 0.006
VPS41 (UniProt P49754)	inactive: -0.019	inactive: 0.007	inactive: 0.015	inactive: 0.016	inactive: 0.003	inactive: 0.024	inactive: 0.014	inactive: 0.005	inactive: 0.047	inactive: 0.013	inactive: -0.018	inactive: -0.016	inactive: 0.085	inactive: 0.005	inactive: -0.078	inactive: 0.06	inactive: 0.074	inactive: -0.054	inactive: 0.002	inactive: 0.058
WAPL isoform 3 (UniProt Q7Z5K2)	inactive: 0.01	inactive: -0.009	inactive: 0.016	inactive: 0.049	inactive: -0.017	inactive: 0.192	inactive: -0.011	inactive: 0.031	inactive: 0.015	inactive: -0.015	inactive: 0.028	inactive: 0.004	inactive: 0	inactive: 0.01	inactive: -0.035	inactive: 0.006	inactive: -0.083	inactive: 0.019	inactive: -0.001	inactive: 0.015
VPS28 (UniProt Q9UK41)	inactive: 0.109	inactive: -0.02	inactive: 0.009	inactive: 0.046	inactive: -0.004	inactive: -0.005	inactive: 0.019	inactive: -0.092	inactive: 0.028	inactive: 0.019	inactive: -0.012	inactive: 0.016	inactive: 0.178	inactive: -0.035	inactive: -0.012	inactive: 0.067	inactive: -0.208	inactive: 0.018	inactive: 0.01	inactive: -0.007
VPS51 (UniProt Q9UID3)	inactive: 0.038	inactive: 0.004	inactive: 0.017	inactive: -0.05	inactive: 0.018	inactive: 0.027	inactive: -0.007	inactive: -0.038	inactive: 0.018	inactive: 0.002	inactive: -0.043	inactive: 0.029	inactive: 0.038	inactive: -0.015	inactive: -0.05	inactive: -0.004	inactive: 0.143	inactive: -0.071	inactive: 0.02	inactive: 0.001
WDR89 (UniProt Q96FK6)	inactive: 0.024	inactive: 0	inactive: 0.037	inactive: -0.06	inactive: -0.044	inactive: 0.049	inactive: -0.007	inactive: 0.06	inactive: 0.007	inactive: -0.028	inactive: -0.147	inactive: 0.033	inactive: -0.042	inactive: 0.024	inactive: 0.029	inactive: -0.043	inactive: -0.091	inactive: 0.052	inactive: -0.079	inactive: -0.034
VMP1 (UniProt Q96GC9)	inactive: -0.158	inactive: -0.003	inactive: 0.022	inactive: -0.02	inactive: 0.025	inactive: -0.016	inactive: 0.022	inactive: 0.107	inactive: 0.032	inactive: -0.086	inactive: 0.027	inactive: 0.033	inactive: -0.061	inactive: 0.063	inactive: 0.001	inactive: -0.119	inactive: -0.359	inactive: 0.05	inactive: 0.014	inactive: 0.141
VPS4A (UniProt Q9UN37)	inactive: 0.001	inactive: 0	inactive: 0.013	inactive: 0.035	inactive: 0	inactive: -0.035	inactive: -0.046	inactive: -0.039	inactive: 0.045	inactive: 0.025	inactive: 0.096	inactive: -0.006	inactive: 0.014	inactive: -0.063	inactive: -0.09	inactive: 0.054	inactive: -0.12	inactive: -0.036	inactive: 0.027	inactive: 0.056
WDR45 isoform 2 (UniProt Q9Y484)	inactive: 0.018	inactive: 0.014	inactive: 0.13	inactive: 0.111	inactive: -0.008	inactive: 0.014	inactive: 0.028	inactive: -0.04	inactive: -0.014	inactive: -0.036	inactive: -0.028	inactive: 0.043	inactive: 0.005	inactive: 0.052	inactive: 0	inactive: 0.12	inactive: -0.19	inactive: 0.086	inactive: 0.01	inactive: 0.024
VTN (UniProt P04004)	inactive: -0.019	inactive: -0.007	inactive: 0.01	inactive: -0.044	inactive: 0.028	inactive: 0.088	inactive: 0.017	inactive: -0.011	inactive: 0.155	inactive: -0.04	inactive: 0.029	inactive: 0.058	inactive: 0.043	inactive: 0.063	inactive: -0.001	inactive: 0.011	active: -0.615	inactive: 0.289	inactive: 0.075	inactive: -0.012

2 entries from above in another layout:

| Target | log2 fold change (ibrutinib) | log2 fold change [1] | log2 fold change (ralimetinib) | log2 fold change [2] | log2 fold change [3] | log2 fold change [4] | log2 fold change [5] | log2 fold change [6] | log2 fold change [7] | log2 fold change [8] | log2 fold change (vemurafenib) | log2 fold change [9] | log2 fold change (barasertib) | log2 fold change [10] | log2 fold change (volasertib) | log2 fold change [11] | log2 fold change [12] | log2 fold change [13] | log2 fold change (saracatinib) | log2 fold change (sotrastaurin) |
| --- | --- | --- | --- | --- | --- | --- | --- | --- | --- | --- | --- | --- | --- | --- | --- | --- | --- | --- | --- | --- |
| WDR73 (UniProt Q6P4I2) | inactive: 0.008 | inactive: 0.03 | inactive: -0.009 | inactive: -0.001 | inactive: -0.003 | inactive: -0.016 | inactive: -0.013 | inactive: 0.007 | inactive: 0.001 | inactive: 0.032 | inactive: -0.011 | inactive: -0.021 | inactive: -0.024 | inactive: 0.033 | inactive: -0.017 | inactive: -0.001 | inactive: -0.036 | inactive: 0.086 | inactive: 0.013 | inactive: -0.001 |
| WASHC5 (UniProt Q12768) | inactive: 0.016 | inactive: -0.008 | inactive: 0.017 | inactive: -0.026 | inactive: -0.014 | inactive: 0 | inactive: -0.013 | inactive: 0.004 | inactive: -0.022 | inactive: 0.005 | inactive: 0.031 | inactive: 0.036 | inactive: 0.007 | inactive: 0.006 | inactive: -0.035 | inactive: -0.01 | inactive: -0.057 | inactive: 0.003 | inactive: -0.007 | inactive: 0.006 |
